Measured values from the supplement of paper PMC5949888.
Most values lie at the floor of the assay. Slopes are relative: functional sequences can read slightly below zero.

The substances below were run on Saccharomyces cerevisiae PS128 hsf1 delta, HSF1(1-493) fusion (assay: growth estimate (transactivation domain function in HSF1 fusion, heat-shock survival) (a.u. (slope of normalised read count over time)); higher = stronger growth at 37°C, i.e. more transactivation activity). Conditions: library: random library.

**Q.** SLEQWASHGKAGVQEDWNLG was tested. Which growth estimate did it give?
**A.** Its growth estimate is less than -0.25.

**Q.** SLERSSQVARQYCNVPDLQR was tested. Which growth estimate did it give?
**A.** The growth estimate was less than -0.25.

**Q.** With SLFCTLGNVLRTRFGGLRSI as the substance, how does the growth estimate read?
**A.** The growth estimate was less than -0.25.

**Q.** SLGASVIQGGIRRRRDLRRA was tested. Which growth estimate did it give?
**A.** The growth estimate was less than -0.25.

**Q.** With SLGEKLEVLHVFTWNTLPWT as the substance, how does the growth estimate read?
**A.** Its growth estimate is less than -0.25.

**Q.** SLGKGLARGGYTCFTRLIVG was tested. Which growth estimate did it give?
**A.** The growth estimate was less than -0.25.

**Q.** For SLGMISKSSKGRDSEGTLPS, which growth estimate is on record?
**A.** Its growth estimate is less than -0.25.

**Q.** Which growth estimate does the source give for SLGSHVPRRRKAVAVLFRVP here?
**A.** The growth estimate was less than -0.25.

**Q.** For SLGTGVPSEIQRHMGRVLGS, which growth estimate is on record?
**A.** The growth estimate was less than -0.25.

**Q.** Which growth estimate does the source give for SLHEACHLKECRSLNRRVRW here?
**A.** Its growth estimate is less than -0.25.

**Q.** How did the growth estimate turn out when SLHGGWYNHKSKDLHLLGGS was run?
**A.** Its growth estimate is less than -0.25.

**Q.** With SLHGKSRIGFIPSGGI as the substance, how does the growth estimate read?
**A.** Its growth estimate is less than -0.25.

**Q.** With SLHQRGDGWGTVGIVARLAP as the substance, how does the growth estimate read?
**A.** Its growth estimate is less than -0.25.

**Q.** How did the growth estimate turn out when SLIAESL was run?
**A.** Its growth estimate is less than -0.25.

**Q.** For SLIFVIPMGRHMY, which growth estimate is on record?
**A.** Its growth estimate is less than -0.25.

**Q.** SLILLSSSPGYWGYGLLPNI was tested. Which growth estimate did it give?
**A.** Its growth estimate is less than -0.25.

**Q.** Which growth estimate does the source give for SLIPKMREILVTSAPPLRTV here?
**A.** Its growth estimate is less than -0.25.

**Q.** With SLIRRSDLMH as the substance, how does the growth estimate read?
**A.** The growth estimate was less than -0.25.

**Q.** SLITG was tested. Which growth estimate did it give?
**A.** The growth estimate was less than -0.25.

**Q.** Which growth estimate does the source give for SLKLYLRPA here?
**A.** The growth estimate was less than -0.25.

**Q.** For SLKQHVSSRFTK, which growth estimate is on record?
**A.** Its growth estimate is less than -0.25.

**Q.** How did the growth estimate turn out when SLKSAEVSLVGCRLCWKPRV was run?
**A.** The growth estimate was less than -0.25.

**Q.** For SLKVRGRGRLRETFSLGAGT, which growth estimate is on record?
**A.** The growth estimate was less than -0.25.

**Q.** With SLLEEVIPEQ as the substance, how does the growth estimate read?
**A.** Its growth estimate is less than -0.25.

**Q.** With SLLL as the substance, how does the growth estimate read?
**A.** The growth estimate was less than -0.25.

**Q.** How did the growth estimate turn out when SLLSRPVDCAGWVRRVGKAI was run?
**A.** Its growth estimate is less than -0.25.

**Q.** How did the growth estimate turn out when SLPGHNSIQGRSIVRSRVPI was run?
**A.** The growth estimate was less than -0.25.

**Q.** How did the growth estimate turn out when SLQFRCQLWLGSSHDTQG was run?
**A.** The growth estimate was less than -0.25.

**Q.** With SLQGPGIRT as the substance, how does the growth estimate read?
**A.** Its growth estimate is less than -0.25.

**Q.** How did the growth estimate turn out when SLQLRMGEIGRRLWNWMLTA was run?
**A.** Its growth estimate is less than -0.25.

**Q.** How did the growth estimate turn out when SLQRSVYRYSA was run?
**A.** The growth estimate was less than -0.25.

**Q.** For SLQTLLNPSLNVLRFRVISH, which growth estimate is on record?
**A.** Its growth estimate is less than -0.25.

**Q.** Which growth estimate does the source give for SLRAAAIYMTADLHYKTSRT here?
**A.** The growth estimate was less than -0.25.

**Q.** With SLRHAHALVGEGCG as the substance, how does the growth estimate read?
**A.** Its growth estimate is less than -0.25.

**Q.** Which growth estimate does the source give for SLRHHIKRQELLKALNAIRD here?
**A.** Its growth estimate is less than -0.25.

**Q.** With SLRHTDLSIRLWQFLSSVDL as the substance, how does the growth estimate read?
**A.** The growth estimate was less than -0.25.

**Q.** SLRNVLQSAGGARFPIDVVS was tested. Which growth estimate did it give?
**A.** Its growth estimate is less than -0.25.

**Q.** Which growth estimate does the source give for SLRPYWLR here?
**A.** Its growth estimate is less than -0.25.

**Q.** How did the growth estimate turn out when SLRSCDQRTSDARVSTSDLG was run?
**A.** The growth estimate was less than -0.25.

**Q.** For SLRSHKQDHIQ, which growth estimate is on record?
**A.** The growth estimate was less than -0.25.

**Q.** SLRYGGVHCIISGGQVPRIG was tested. Which growth estimate did it give?
**A.** Its growth estimate is less than -0.25.

**Q.** Which growth estimate does the source give for SLSACQDPPACERDPARREL here?
**A.** Its growth estimate is less than -0.25.

**Q.** How did the growth estimate turn out when SLSFREARDLGCPEQTRDDV was run?
**A.** The growth estimate was less than -0.25.

**Q.** Which growth estimate does the source give for SLSGGCRPSDSPMDF here?
**A.** The growth estimate was less than -0.25.

**Q.** For SLSGVTQMERLSLSGFFATA, which growth estimate is on record?
**A.** The growth estimate was less than -0.25.

**Q.** How did the growth estimate turn out when SLSLHRISYAAR was run?
**A.** The growth estimate was less than -0.25.

**Q.** Which growth estimate does the source give for SLSLVSWEWTDSMEEAEHGT here?
**A.** The growth estimate was -0.225.

**Q.** For SLVHCDFRYFAAPDWRSG, which growth estimate is on record?
**A.** Its growth estimate is less than -0.25.

**Q.** For SLVIDNPWSVQRFYRPIHLE, which growth estimate is on record?
**A.** Its growth estimate is less than -0.25.

**Q.** How did the growth estimate turn out when SLVIVSYVTTKPDLDRTARA was run?
**A.** Its growth estimate is less than -0.25.

**Q.** Which growth estimate does the source give for SLVKSRTRHVALGIASNLEC here?
**A.** Its growth estimate is less than -0.25.

**Q.** With SLVLGRS as the substance, how does the growth estimate read?
**A.** The growth estimate was less than -0.25.

**Q.** With SLVLRELVFEIKCNSMYIVR as the substance, how does the growth estimate read?
**A.** The growth estimate was less than -0.25.

**Q.** How did the growth estimate turn out when SLVP was run?
**A.** Its growth estimate is less than -0.25.

**Q.** For SLVQTWEALQTLERTWDLAR, which growth estimate is on record?
**A.** The growth estimate was -0.141.

**Q.** SLW was tested. Which growth estimate did it give?
**A.** Its growth estimate is less than -0.25.

**Q.** With SLWKLCVNLMEGQWPSLQVS as the substance, how does the growth estimate read?
**A.** Its growth estimate is less than -0.25.

**Q.** How did the growth estimate turn out when SLWPF was run?
**A.** The growth estimate was less than -0.25.

**Q.** SLYIGVAVESR was tested. Which growth estimate did it give?
**A.** Its growth estimate is less than -0.25.

**Q.** SMEFWHVNSVSK was tested. Which growth estimate did it give?
**A.** Its growth estimate is less than -0.25.

**Q.** Which growth estimate does the source give for SMFSDMAPDS here?
**A.** Its growth estimate is less than -0.25.

**Q.** With SMGDSSRARFL as the substance, how does the growth estimate read?
**A.** The growth estimate was -0.0026.

**Q.** With SMHVCNRLCRYWVILRDNIQ as the substance, how does the growth estimate read?
**A.** The growth estimate was less than -0.25.

**Q.** For SMLVRRWTANRSTINRVFSM, which growth estimate is on record?
**A.** The growth estimate was less than -0.25.

**Q.** Which growth estimate does the source give for SMR here?
**A.** Its growth estimate is less than -0.25.

**Q.** SMRSEDPSHLVDRPSYGCWK was tested. Which growth estimate did it give?
**A.** Its growth estimate is less than -0.25.

**Q.** How did the growth estimate turn out when SMRTRVSGYR was run?
**A.** Its growth estimate is less than -0.25.

**Q.** How did the growth estimate turn out when SMVHAKGINLVISRSHLGAE was run?
**A.** Its growth estimate is less than -0.25.

**Q.** Which growth estimate does the source give for SMWARVMFGVRYR here?
**A.** Its growth estimate is less than -0.25.

**Q.** For SNA, which growth estimate is on record?
**A.** Its growth estimate is less than -0.25.

**Q.** How did the growth estimate turn out when SNCA was run?
**A.** Its growth estimate is less than -0.25.

**Q.** With SNCCTECRGRLMCGACRTVL as the substance, how does the growth estimate read?
**A.** The growth estimate was less than -0.25.

**Q.** For SNFGVEWSN, which growth estimate is on record?
**A.** The growth estimate was less than -0.25.

**Q.** For SNGERFLYAVVVWPSLGLPV, which growth estimate is on record?
**A.** Its growth estimate is less than -0.25.

**Q.** For SNGIPQPLEGSGV, which growth estimate is on record?
**A.** The growth estimate was less than -0.25.

**Q.** How did the growth estimate turn out when SNGLGRRLQ was run?
**A.** The growth estimate was less than -0.25.

**Q.** For SNGSRSWCVVSDKP, which growth estimate is on record?
**A.** Its growth estimate is less than -0.25.

**Q.** For SNGTN, which growth estimate is on record?
**A.** Its growth estimate is less than -0.25.
